# Several values for one entry are separate records, joined by “and”; a condition that tells them apart may be missing. Identical values can stand only once. The campaign covered roughly 360,000 compounds. About 780 (0.22%) were called active. This list was built around the results that the source calls inconclusive (neither active nor inactive); the mix of calls is not that of the screen. No stated cut-off is given here; in the data, active means inhibition above about 35% (passing the limit was not always enough); inconclusive means no clear call, values can overlap the other calls.
# Test system: Botulinum neurotoxin type F light chain protease (Clostridium botulinum)
# Test: BoNT/F light chain protease inhibitors, primary screen, biochemical, flow cytometry, MLPCN library (AID 588497); further: plate controls were buffer without enzyme for full effect and enzyme alone for no effect
# Settings: Multiplex microsphere protease cleavage assay, at 10 µM, active compounds read high
row,Structure (SMILES),inhibition
1,O=C(N/N=C/c1cccc2cccnc12)c1ccccc1O,inactive: -9.3%
2,Cc1cccc(C(=O)Nc2cccnc2Cl)c1,inactive: -160%
3,Clc1ccc(SCCOCCN2CCCCCC2)cc1,inconclusive: -21.4%
4,N#Cc1ccccc1NC(=O)CN1CCOCC1,inconclusive: 24.1%
5,COc1cc(/C=N/Nc2nc(N3CCCC3)nc(N3CCCC3)n2)ccc1OCc1ccccc1F,inconclusive: -64.6%
6,CC(C)(C)c1ccc(NC(=O)N2CCN(c3ccc([N+](=O)[O-])cn3)CC2)cc1,inconclusive: 56.2%
7,COc1ccc2[nH]c(C(=O)N3CCC(CO)(Cc4cccc(C(F)(F)F)c4)CC3)c(C)c2c1,inconclusive: -24%
8,CCC(CC)NC(=O)COC(=O)CCC(=O)c1cccs1,inactive: -0.8%
9,Cc1cc(C)c(C)c(OCC(=O)O/N=C(\N)c2cccnc2)c1,inconclusive: -54.6%
10,CCc1ccc(N(C(=O)CCC(=O)Nc2cc(C)on2)C(C(=O)NC2CCCC2)c2ccco2)cc1 (stereo not given),inconclusive: 1.8%
11,CC(C)CC1Nc2ncnc(N3CCN(c4ccccn4)CC3)c2N(Cc2ccccc2)C1=O (stereo not given),inactive: -3.5% and inactive: -2.2%
12,CS(=O)(=O)N1CCN(C(=O)c2csc3ccccc23)CC1,inactive: -3.8%
13,CC(C)C[C@H]1CN(CCCC[C@@H]2CNC(=O)C(=O)N2CCc2ccccc2)C(=O)C(=O)N1CCc1ccccc1,inactive: -6.1%
14,CC1S/C(=N/N=C/c2cccs2)NC1=O (stereo not given),inactive: 1.5%
15,COc1ccc2nc(/C=N/NC(=O)[C@H](CCSC)NC(=O)OC(C)(C)C)ccc2c1,inactive: -8.5%
16,Cc1ccc(C(=O)CSc2nnc(-c3snnc3C)n2C2CC2)cc1,inconclusive: -24.9%
17,O=C(O)c1ccc(Nc2ccc3nonc3c2[N+](=O)[O-])cc1,inconclusive: -2.9%
18,CCOC(=O)c1ccc(NC(=O)c2ccco2)cc1,inconclusive: 14.7%
19,CCOC(=O)Cc1csc(NC(=O)CSc2nnc(-c3ccc(OC)cc3)n2C)n1,inactive: -3.9%
20,CC(C)CC(C(=O)Nc1cccc(O)c1)N1C(=O)c2ccccc2C1=O (stereo not given),inconclusive: -79.5%

row,Structure (SMILES),inhibition
1,COC(=O)C1=CN(C2CC2)C=C(C(=O)OC)C1c1ccccc1OC,inactive: -5.6%
2,CN(C(=O)c1ccco1)c1nc(-c2ccccc2)cs1,inconclusive: -27.1%
3,COc1ccc(-c2cc(C#N)nc(Cl)n2)cc1,inconclusive: -64.3%
4,CCCCc1nc2sc3c(SCCN(C)C)ncnc3c2c2c1CCC2,inconclusive: 4.7%
5,CC1CCCCN1C(=O)COc1ccc(S(=O)(=O)N2CCCC2)cc1[N+](=O)[O-] (stereo not given),inconclusive: 3.2%
6,CCc1nnc(NC(=O)CCC(=O)N2CCC(Cc3ccccc3)CC2)s1,inactive: -0.1%
7,CC(C)=CCC/C(C)=C/C(N)=O,inconclusive: 5%
8,CN(CC(=O)Nc1ccccc1C(F)(F)F)C(=O)CN1C(=O)C2CCCCC2C1=O (stereo not given),inactive: -9.8%
9,Cc1cc(N2CCOCC2)cc(C)[n+]1[O-],inactive: -0.3%
10,Clc1ccccc1CN1CCNCC1,inconclusive: 18%
11,Brc1ccc(CN2CCN(c3ccccc3)CC2)o1,inconclusive: -8.7%
12,CN1C(=O)OC(C)(CCc2ccccc2)C1(C)O (stereo not given),inconclusive: -6.4%
13,COc1cccc(/C=C/C(=O)OCC(=O)NCCc2ccccc2)c1,inactive: 1.1%
14,Cc1nn2c(-c3ccccc3)c(-c3ccccc3)nc2[nH]c1=O,inactive: 20.6%
15,CCc1ccc(OCC2Cn3c(nc4c3c(=O)[nH]c(=O)n4C)O2)cc1 (stereo not given),inconclusive: 26.9%
16,CCc1nc2c(OCC(=O)c3ccc(Cl)cc3Cl)cccn2c1N(C=O)Cc1ccc(OC)cc1,inactive: -14.3%
17,COc1ccc(OCCOC(=O)CNC(=O)c2cccc(C)c2)cc1,inconclusive: -219%
18,O=C(NCCCNc1ccc(C(F)(F)F)cc1[N+](=O)[O-])c1ccc(F)cc1,inactive: -3%
19,COc1ccc([C@@H]2[C@H]3C(=O)N(c4cccc(C(F)(F)F)c4)C(=O)[C@H]3ON2C)cc1,inactive: 3.9%
20,OC(CNC1Cc2ccccc2C1)COc1ccc(Cl)cc1 (stereo not given),inconclusive: -121%

row,Structure (SMILES),inhibition
1,Cc1cc2ccccc2n1CCNC(=O)C(C)(C)C,inactive: -15.6%
2,O=C(NCCCn1ccnc1)c1ccccc1Cl,inconclusive: 18.6%
3,CNC(=O)C[C@@H]1C(=O)N(c2ccc(Br)cc2)CC1(C)C,inactive: -3.2%
4,CC(C)NC(=O)C1(C)CCN1C(=O)C1(c2ccccc2)CC1 (stereo not given),inactive: 5.4%
5,COc1ccccc1NC(=O)N1CCN(c2cc(-c3ccccc3)nc3ncnn23)CC1,inactive: 0.5%
6,Cc1cc[n+](CC(=O)c2cccc([N+](=O)[O-])c2)c2ccccc12,inconclusive: -166%
7,COc1ccc(OC)c(CN2CCN(Cc3cc(=O)oc4cc(O)ccc34)CC2)c1,inactive: -10.8%
8,O=C(CCN1C(=O)C2CC=C(Cl)CC2C1=O)N1CCCCC1 (stereo not given),inactive: -17.3%
9,O=C(NCCCn1ccnc1)c1ccc(Cl)c(Cl)c1,inconclusive: 25%
10,Cc1ccc(NC(=O)CSc2nc(N)cc(=O)[nH]2)cc1Cl,inactive: -32.1%
11,CC(C)Cc1nnc(NC(=O)CCC(=O)Nc2ccc3cn[nH]c3c2)s1,active: 43.7%
12,C=CCc1ccc(OCCOc2cccc3ccc(C)nc23)c(OC)c1,active: 53.4%
13,O=Cc1c(N2CCSCC2)nc2ccccn2c1=O,inconclusive: 36%
14,CCOC(=O)c1nc(C)sc1-c1ccnn1S(=O)(=O)c1ccc(C)cc1,inconclusive: -28.9%
15,O=c1cc(CN2CCNCC2)nc2sccn12,inconclusive: 29.7%
16,CCCOc1ccc(-c2nnn(CC(=O)N3CCCCC3)n2)cc1,inactive: -7.9%
17,CCCc1cc(N2CCCC(C(=O)Nc3cc(Cl)ccc3OC)C2)n2ncnc2n1 (stereo not given),inactive: 0.2%
18,Cc1cc(=O)[nH]c2nc3ccccc3n12,inactive: -2.9%
19,CC1(C)CC(=O)C=C(Nc2ccccc2C#N)C1,inconclusive: 9.9%
20,Cc1onc(-c2ccc(Cl)cc2Cl)c1-c1csc(N/N=C/c2ccccc2)n1,inconclusive: -3.2%

# Source: PubChem BioAssay AID588497 (NMMLSC, 2011)
